No constants are given. Whether binding was seen depends on the method and setting. In cells and extracts the contact can be indirect. Binding calls can cover weak binding; strength is not graded here.
Biological target: WNT (human (endogenous in BMSCs))
Assay: co-IP; cells lysed 20 min at 4 C in 50 mM Tris-HCl, 150 mM NaCl, 1% NP-40, 10% glycerol, 0.1% SDS, 2 mM Na2EDTA; immunoprecipitated with antibody and protein A+G agarose beads at 4 C, washed 3 times, western blot; IgG as control

B1: Wnt inhibitor (WIF)-1 (protein, UniProt Q9Y5W5 29-379)
chain: GPPQEESLYLWIDAHQARVLIGFEEDILIVSEGKMAPFTHDFRKAQQRMPAIPVNIHSMNFTWQAAGQAEYFYEFLSLRSLDKGIMADPTVNVPLLGTVPHKASVVQVGFPCLGKQDGVAAFEVDVIVMNSEGNTILQTPQNAIFFKTCQQAECPGGCRNGGFCNERRICECPDGFHGPHCEKALCTPRCMNGGLCVTPGFCICPPGFYGVNCDKANCSTTCFNGGTCFYPGKCICPPGLEGEQCEISKCPQPCRNGGKCIGKSKCKCSKGYQGDLCSKPVCEPGCGAHGTCHEPNKCQCQEGWHGRHCNKRYEASLIHALRPAGAQLRQHTPSLKKAEERRDPPESNYIW
binding: binds

— PMC8312462
